PubChem BioAssay AID1159584, Peter MacCallum Cancer Centre | 2016

Screen: 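Knock-downs that harm CDH1-null cells more than parental MCF10A cells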 (primary screen)
Cell system: human MCF10A breast epithelial cells, parental and CDH1-null
Knock-down reagent: siRNA against human genes
Detection: 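ATP luminescence (CellTiter-Glo) viability per line relative to mean mock wells over all plates, and the ratio of CDH1-null to parental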
Direction: CDH1-null / parental viability ratio: higher = CDH1-null cells survive relatively better than parental; CDH1-null viability vs mock: higher = more viable CDH1-null cells
Units: CDH1-null viability vs mock in fraction of mock
In all, the deposit lists about 18,000 reagents; shown is a part drawn at random. Further read-outs or replicates are left out here. Not stated in the record: the amount of reagent, the time to read-out.

What did the screen give for FUT4?
CDH1-null / parental viability ratio: 0.74; CDH1-null viability vs mock: 0.46

For TRHDE, what does the deposit list?
CDH1-null / parental viability ratio: 1.12; CDH1-null viability vs mock: 1.02

With ZNF835, how do the results read?
CDH1-null / parental viability ratio: 0.63; CDH1-null viability vs mock: 0.74

For IWS1, what does the deposit list?
CDH1-null / parental viability ratio: 1.15; CDH1-null viability vs mock: 0.92

How did the screen score EMP2?
CDH1-null / parental viability ratio: 1.06; CDH1-null viability vs mock: 0.9

What did the screen give for VN1R2?
CDH1-null / parental viability ratio: 0.79; CDH1-null viability vs mock: 0.92

For RBM41, what was measured?
CDH1-null / parental viability ratio: 1; CDH1-null viability vs mock: 1

Which result is listed for MSMB?
CDH1-null / parental viability ratio: 0.92; CDH1-null viability vs mock: 0.98

With ZNF461, what was measured?
CDH1-null / parental viability ratio: 0.82; CDH1-null viability vs mock: 0.54

Copied from the listing, 2 entries:
EMP2: CDH1-null / parental viability ratio = 1.06; CDH1-null viability vs mock = 0.9
VN1R2: CDH1-null / parental viability ratio = 0.79; CDH1-null viability vs mock = 0.92

Additional entries follow:
How did the screen score INVS?
CDH1-null / parental viability ratio: 1.21; CDH1-null viability vs mock: 0.87

What is on record for PLPP1?
CDH1-null / parental viability ratio: 1.39; CDH1-null viability vs mock: 1.06

What is on record for NTN1?
CDH1-null / parental viability ratio: 1.14; CDH1-null viability vs mock: 0.48

How did the screen score FERD3L?
CDH1-null / parental viability ratio: 1.21; CDH1-null viability vs mock: 0.99

What did the screen give for FAM86B1?
CDH1-null / parental viability ratio: 0.86; CDH1-null viability vs mock: 0.5
